Test results reported in the supplement of paper PMC9454738.
The other results are listed elsewhere or left out. This data set is noisy: repeats of one test often differ as much as different tests do.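 Assays used MDA-MB-231 triple-negative breast cancer cells and their brain-metastatic line MDA-MB-231BRM, stably carrying empty vector, full-length GLI1 or truncated tGLI1. After 48 h, viability was read with CellTiter-Blue and normalized to 1% DMSO vehicle. tGLI1 selectivity meant viability fell 20% more in tGLI1 cells than in vector and GLI1 cells.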

Assays:
Test in all cases: cell viability relative to vehicle (DMSO) control (fraction); higher = more viable cells (less growth inhibition)
Settings in all cases: treatment time 48 h
[1] = system: MDA-MB-231 GLI1
[2] = system: MDA-MB-231 Vector
[3] = system: MDA-MB-231 tGLI1
[4] = system: MDA-MB-231BRM GLI1
[5] = system: MDA-MB-231BRM Vector
[6] = system: MDA-MB-231BRM tGLI1

Structure (SMILES)	cell viability ([1]; 0.05 µM)	cell viability ([1]; 0.5 µM)	cell viability ([1]; 5 µM)	cell viability ([2]; 0.05 µM)	cell viability ([2]; 0.5 µM)	cell viability ([2]; 5 µM)	cell viability ([3]; 0.05 µM)	cell viability ([3]; 0.5 µM)	cell viability ([3]; 5 µM)	cell viability ([4]; 0.05 µM)	cell viability ([4]; 0.5 µM)	cell viability ([4]; 5 µM)	cell viability ([5]; 0.05 µM)	cell viability ([5]; 0.5 µM)	cell viability ([5]; 5 µM)	cell viability ([6]; 0.05 µM)	cell viability ([6]; 0.5 µM)	cell viability ([6]; 5 µM)
CNc1nc(-c2ccc3c(N)n[nH]c3c2)cc(N2C[C@@H](C(=O)NC3CCCCC3)CC[C@H]2C)n1	1.15	1.41	0.824	1.2	1.1	0.848	1.13	1.19	0.932	1.04	0.928	0.914	1.12	1.06	0.954	0.928	0.931	0.887
CCN(CC)CCCC(C)Nc1nc(C)cc(Nc2ccc3nc(C)cc(N)c3c2)n1 (centres undefined)	2.45	3.04	2.04	1.41	1.28	1.22	1.36	1.44	1.29	0.759	0.753	0.574	0.925	0.708	0.651	1.14	1.02	0.987
CN(C[C@@H]1COCCO1)S(=O)(=O)Nc1ccc2ccc3ncc(-c4cnn(C)c4)cc3c(=O)c2c1	1.29	1.38	0.959	1.36	1.36	0.825	1.4	1.17	0.96	0.935	0.693	0.381	0.844	0.753	0.389	0.831	0.806	0.343
O=c1c(O)c(-c2ccc(O)c(O)c2)oc2cc(O)cc(O)c12 [Quercetin]	0.94	1.31	0.776	0.993	0.866	1.06	1.2	1.18	0.875	1.03	1.12	0.908	1.04	1.02	0.918	1.05	1.04	0.86
C=CC(=O)Nc1cccc(Oc2nc(Nc3ccc(N4CCN(C)CC4)cc3OC)ncc2Cl)c1	1.39	1.7	1.33	1.41	1.18	1.15	1.24	1.49	1.46	1	0.972	0.893	0.924	0.964	1.02	0.993	0.921	0.952
COc1cc(Nc2ncc(F)c(Nc3ccc4c(n3)N(COP(=O)(O)O)C(=O)C(C)(C)O4)n2)cc(OC)c1OC [Fostamatinib (R788)]	0.924	1.07	0.145	1.01	0.872	0.23	1.18	1.15	0.195	1.02	1.05	0.901	1.05	0.949	0.831	1.01	0.988	0.755
COc1cc(CCc2cc(NC(=O)c3ccc(N4CC(C)NC(C)C4)cc3)n[nH]2)cc(OC)c1 (centres undefined)	1.19	1.23	0.562	1.28	1.45	0.585	1.3	1.13	0.53	1.07	0.97	0.777	0.97	1.01	0.523	1.06	1.04	0.851
COC(=O)c1ccc2c(c1)NC(=O)/C2=C(\Nc1ccc(N(C)C(=O)CN2CCN(C)CC2)cc1)c1ccccc1 [Nintedanib (BIBF 1120)]	1.15	1.42	0.458	1.01	0.952	0.335	0.884	1.25	0.254	0.875	0.736	0.373	0.779	0.727	0.37	0.914	0.755	0.345
